Results as given in patent US20040063729A1, “Triazolopyrimidines” (priority 2000, published 2004).
Some results were stated once for a whole list of compounds, not compound by compound.

system: Botrytis cinera; test: Test of foliar spray effect against Botrytis cinera; type: in vivo; conditions: active compound concentration of 500 ppm; foliar spray on kidney beans, inoculation one day after spraying, evaluated 5 days after the inoculation; average of 3 replications

Structure (SMILES)	control value
Clc1nc2ncnn2c(Cl)c1Cc1ccccc1 [I-110]	more than 80%
Clc1ccc(Cc2cnc3ncnn3c2Cl)cc1Cl [I-146]	more than 80%
Fc1ccc(Cc2c(Cl)nc3ncnn3c2Cl)c(F)c1F [I-6]	more than 80%
Fc1ccc(F)c(Cc2c(Cl)nc3ncnn3c2Cl)c1F [I-11]	more than 80%
FC(F)(F)Oc1ccc(Cc2c(Cl)nc3ncnn3c2Cl)cc1 [I-104]	more than 80%
CC(c1ccccc1)c1c(Cl)nc2ncnn2c1Cl (stereo not shown) [I-112]	more than 80%
Fc1cc(F)c(Cc2c(Cl)nc3ncnn3c2Cl)c(F)c1 [I-20]	more than 80%
FC(F)(F)c1cccc(Cc2c(Cl)nc3ncnn3c2Cl)c1 [I-73]	more than 80%
Cc1cccc(Cc2c(Cl)nc3ncnn3c2Cl)c1 [I-75]	more than 80%
Cc1ccc(Cc2c(Cl)nc3ncnn3c2Cl)cc1 [I-94]	more than 80%
Clc1cccc(Cc2c(Cl)nc3ncnn3c2Cl)c1 [I-76]	more than 80%
Clc1cccc(Cc2cnc3ncnn3c2Cl)c1Cl [I-142]	more than 80%
Fc1cc(F)c(Cc2c(Cl)nc3ncnn3c2Cl)cc1F [I-18]	more than 80%
